Results deposited as PubChem BioAssay AID1259254 (NCATS, 2017)

- Screen: 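Genome-wide screen for genes that prevent DNA re-replication in cancer cells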 (primary screen)
- System: human HCT116 colorectal cancer cells
- Reagent: single siRNA against human genes
- Time to read-out: 3 days
- Measurement: 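Nuclei stained with Hoechst and imaged; cell-cycle phase assigned by DNA content; G2 share scaled per plate, non-targeting siRNA 0%, GMNN siRNA 100%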
- Scale: G2 robust z-score: higher = more G2 cells, more excess DNA replication
- Rule for the call: 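Active siRNAs have a G2 robust z of 5 or more median absolute deviations over the median, which in these data means about 38% or higher of GMNN control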
In all, the deposit lists about 59,000 reagents; below is a random part of them. Of all reagents, about 1,550 (2.6%) are marked active. 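G2 share is only a proxy for re-replication; each gene was hit by three separate siRNAs, and active genes were retested.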 Entries without a mark were called inactive. The numbers tell different reagents against one gene apart. Further read-outs or replicates are left out here. Reagent sequences are not shown. Not given: the amount of reagent.

SYNGR2 #1 — G2 robust z-score = -0.892
SYNGR2 #2 — G2 robust z-score = 3.08
SYNGR2 #3 — G2 robust z-score = -0.828
GINS2 #1 — G2 robust z-score = -0.298
GINS2 #2 — G2 robust z-score = 1.16
GINS2 #3 — G2 robust z-score = 2.55
GSTA12P #1 — G2 robust z-score = -0.207
GSTA12P #2 — G2 robust z-score = -0.099
GSTA12P #3 — G2 robust z-score = -0.802
SLC2A9 #1 — G2 robust z-score = 0.049
SLC2A9 #2 — G2 robust z-score = -1.61
SLC2A9 #3 — G2 robust z-score = -0.376
FER1L5 #1 — G2 robust z-score = 0.434
FER1L5 #2 — G2 robust z-score = -0.0186
FER1L5 #3 — G2 robust z-score = 0.493
SLC18A3 #1 — G2 robust z-score = 3.59
SLC18A3 #2 — G2 robust z-score = -0.743
SLC18A3 #3 — G2 robust z-score = -1.32
